Data source: PubChem BioAssay AID652243 (Drosophila RNAi Screening Center, 2013)
The screen tested about 24,000 reagents; this is an unselected part of those that have a named target and a result. Over the whole deposit, 246 (1%) got an active call. 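Plates not normalised; calls are printed but the firefly/Renilla ratio behind them is not deposited; fold cut for lowering reported inconsistently.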 The raw values are shown without normalisation. Entries without a mark were called inactive. Names joined by + are all predicted targets of the reagent. Not given: the amount of reagent.

- Screen: 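Knock-downs that decrease or increase androgen receptor reporter signal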 (primary screen)
- Cells: Drosophila S2R+ cells
- Knock-down reagent: long dsRNA against Drosophila genes
- Timing: 72 h (48 h, then 24 h hormone)
- Treatment: synthetic androgen R1881 at 10 nM for 24 h
- Measured: 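Per-well raw luminescence of the androgen-driven firefly reporter and of the Renilla control, two replicates each, without normalisation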
- Direction: firefly reporter light: higher = more light from androgen-responsive reporter; Renilla control light: higher = more constitutive control signal (cell number, transfection)
- Active means: 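Hit when the log firefly-to-Renilla ratio dropped or increased by a fixed fold versus the mean of GFP or LacZ controls across duplicate plates; lowering cut given as 1.5 and as 3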
- Meaning of the calls: active = hit: reporter lowered or raised; inactive = no hit

Target gene,amplicon,"firefly reporter light, replicate 1","firefly reporter light, replicate 2","Renilla control light, replicate 1","Renilla control light, replicate 2"
CG12279,DRSC14495,1.51e5,1.57e5,2.00e6,1.74e6
CG7953,DRSC01902,9.08e5,1.01e6,1.73e6,1.70e6
mael,DRSC11894,40395,76393,3.12e5,3.52e5
CG34217,DRSC38886,7.95e5,8.01e5,1.92e6,1.64e6
GstE10,DRSC06671,71172,1.00e5,1.32e6,1.32e6
GstE10,DRSC28568,3.79e5,5.49e5,8.06e5,1.53e6
IntS1,DRSC04343,6.84e5,8.26e5,1.05e6,1.10e6
IntS1,DRSC27942,2.01e6,1.03e6,3.99e6,1.50e6
CG8562,DRSC10995,58936,79453,1.14e6,1.11e6
CG8562,DRSC28778,1.04e6,1.13e6,1.61e6,1.78e6
TwdlY,DRSC19153,7.86e5,8.48e5,2.08e6,2.01e6
mkg-p,DRSC10777,8.25e5,7.59e5,7.66e5,1.16e6
rad50,DRSC04523,8.68e5,5.99e5,1.05e6,1.04e6
CG4036,DRSC02735,7.88e5,7.62e5,2.04e6,1.95e6
CG32488,DRSC08549,4.10e5,4.21e5,2.97e6,4.37e6
CG32488,DRSC21537,7.64e5,5.83e5,2.83e6,2.20e6
CG31835 + CG42585,DRSC01412,1.68e5,1.40e5,7.64e5,6.20e5
CG13084,DRSC02188,97789,1.34e5,1.18e6,1.24e6
AP-2sigma,DRSC15957,3.72e5,4.10e5,3.75e6,3.69e6
kri,DRSC10515,8.00e5,7.69e5,1.94e6,2.14e6
Reps,DRSC02940,1.16e5,1.30e5,1.16e6,1.20e6
Zfrp8,DRSC04352,1.62e5,2.49e5,1.50e6,1.70e6
TAF1B,DRSC16001,50469,1.02e5,5.16e5,7.83e5

Limited to “Renilla control light, replicate 1” (6 entries from above):
CG32488 [DRSC08549]	2.97e6
CG32488 [DRSC21537]	2.83e6
CG31835 + CG42585 [DRSC01412]	7.64e5
CG13084 [DRSC02188]	1.18e6
AP-2sigma [DRSC15957]	3.75e6
kri [DRSC10515]	1.94e6

Further entries follow:
Target gene,amplicon,"firefly reporter light, replicate 1","firefly reporter light, replicate 2","Renilla control light, replicate 1","Renilla control light, replicate 2"
tst,DRSC14212,84761,68506,5.29e5,4.92e5
Gp210,DRSC04861,4.65e5,3.09e5,2.52e6,2.13e6
Gp210,DRSC04900,8.33e5,7.63e5,2.44e6,2.41e6
NimC2,DRSC01881,1.77e5,1.82e5,1.69e6,1.82e6
d4,DRSC04881,1.08e6,3.53e5,2.08e6,7.42e5
d4,DRSC22674,7.61e5,5.53e5,1.60e6,1.48e6
d4,DRSC26581,2.51e5,2.17e5,4.51e5,2.88e5
Ets65A,DRSC09968,1.18e5,90640,1.76e6,1.52e6
Ets65A,DRSC10738,9.25e5,9.95e5,1.24e6,1.55e6
Ets65A,DRSC11164,1.19e6,1.01e6,1.28e6,1.76e6
CG5697,DRSC23479,7.55e5,9.62e5,6.76e5,9.13e5
Cpr49Ad,DRSC07284,3.07e5,2.16e5,2.59e6,1.56e6
BCL7-like,DRSC17729,1.53e5,1.51e5,9.09e5,8.50e5
BCL7-like,DRSC29657,3.86e5,6.02e5,4.17e5,4.17e5
CG43386,DRSC17980,2.08e5,4.00e5,1.78e6,3.17e6
Gbp3,DRSC15206,1.51e5,1.61e5,2.60e6,2.28e6
CG2861,DRSC18229,2.77e5,4.47e5,3.11e6,2.87e6
Cby,DRSC14591,1.99e5,2.00e5,2.60e6,3.00e6
CG17650,DRSC00510,1.25e5,1.00e5,8.91e5,9.79e5
CG9231,DRSC11054,51473,64273,3.99e5,3.53e5
Frq1,DRSC19961,5.24e5,7.60e5,3.32e6,4.10e6
Frq1,DRSC25439,9.90e5,7.44e5,1.05e6,1.17e6
Oatp26F,DRSC02149,1.57e5,1.51e5,1.35e6,1.00e6
Oatp26F,DRSC02272,2.62e5,3.44e5,1.78e6,1.80e6
Oatp26F,DRSC02695,1.83e5,2.39e5,1.58e6,1.68e6
Oatp26F,DRSC27346,2.79e5,2.49e5,5.54e5,6.25e5
Enoph,DRSC12201,50573,58238,9.77e5,1.07e6
CG33252,DRSC19162,9.17e5,1.21e6,1.02e6,8.00e5
Tsp86D,DRSC15607,1.89e5,2.15e5,2.53e6,3.03e6
lt,DRSC03759,3.89e5,5.34e5,1.72e6,1.72e6
PDZ-GEF,DRSC03231,1.21e5,1.31e5,1.60e6,1.34e6
CG34309,DRSC14838,91608,1.16e5,1.80e6,1.74e6
Unc-76,DRSC18193,2.40e5,2.63e5,2.02e6,2.15e6
Unc-76,DRSC18560,3.08e5,3.59e5,2.60e6,3.61e6
Cpr47Eb,DRSC06345,2.01e5,1.87e5,1.55e6,1.72e6
